Measurements reported in patent publication EP0638309A1, “Substances inhibiting proteic adp ribosilation suitable to prevent the diabetes mellitus complications” (ISTITUTO BIOCHIMICO ITALIANO GIOVANNI LORENZINI S.p.A., priority 1993, dated 1995).
At least one read-out could not be matched to a standard name with certainty.

Test system: 5 YSY neuroblastoma
Experiment: Neuritogenesis after retinoic acid in neuroblastoma cells cultured in chronic hyperglucosemia (in vitro diabetic neuropathy model)
Assay type: cell-based
Settings: glucose 30 mM for three weeks, substance 10⁻⁵ M
Protocol: A diabetic neuropathy in vitro model has been carried out using neuroblastoma cells cultured in chronic hyperglucosemia conditions. This condition causes the typical diabetes mellitus dismetabolic effects as the polyols (sorbitol) accumulation, the myoinositol reduction and the reduction of the Na pump functionality. […] A. Shahar et al. - Alan R., Liss.
In the groups from 2) to 4) glucose (30 mM) has been added to the culture renewing the culture medium and then adding glucose every 72 hours, during a three weeks period.
In the group 3), at the same time of the glucose, one of the substances inhibiting proteic ADP-ribosilation reported in the table 1 (amount 10⁻⁵ M) has been added.
In the group 4), at the same time of the glucose one of the substances non inhibiting proteic ADP-ribosilation reported in the table 1 (dermatan sulphate and tolrestat) in amount 10⁻⁵ M has been added.
Subsequently retinoic acid (5 x 10⁻⁶ M) has been added to the cultures 1) to 4) for causing the cells neuritogenesis which has been valued by the observation at the optic microscope considering as neurit the cytoplasmatic extension having a length corresponding at least to twice as the diameter of the cell.

SMILES | Percentage of cells with neurits after retinoic acid addition (3 days in retinoic acid) [%] | Percentage of cells with neurits after retinoic acid addition (7 days in retinoic acid) [%] | Percentage of cells with neurits after retinoic acid addition (12 days in retinoic acid) [%]
CC1=CC(=O)c2ccccc2C1=O [Vit K3, vitamin K3] | 39 | 54 | 80
CCCCCCCCCCCCCC(=O)O [myristic acid] | 38 | 58 | 81
